The values below come from PubChem BioAssay AID2685 (National Center for Advancing Translational Sciences (NCATS), 2010).

The nature of this test: qHTS Assay for Lipid Storage Modulators in Drosophila S3 Cells.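 As to cell number change: cells counted by Cell Tracker Red CMTPX staining in the red channel.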 The following applies: BODIPY lipid droplet fluorescence, 18-24 h; for cell number change: measured here: cell count max response, cells fed with added oleic acid. An outline of the steps: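 Drosophila S3 cells got compounds at several concentrations plus oleic acid (400 uM solution). Laser-scanning cytometry with 488 nm excitation read lipid droplets at 500-530 nm and cells at 575-640 nm. Percent activity was relative to 20 uM Triacsin C.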

Setting [1] is: measured here: lipid fluorescence (Fed channel) AC50, cells fed with added oleic acid.
Setting [2] is: measured here: cell number channel AC50, cells fed with added oleic acid.

What is called AC50 is the concentration at which the activity in the assay is half-maximal. Low values mean greater potency, high ones weaker potency.

The other results are listed elsewhere or left out. Further columns of the screen follow, without active or inactive calls. Compounds called inactive in the main read-out are mostly missing here. The note in brackets gives the kind of curve behind each potency; many fits are weak.

In the case of `COc1ccc(C2(C)NC(=O)N(CC(=O)c3cc(C)n(C4CC4)c3C)C2=O)cc1OC` (centres undefined), the cell number change amounted to 7.67%. The AC50 under setting [1] was 0.146 µM [rising, full curve, poor fit].
On to `CCCOc1ccc(/C(O)=C2/C(=O)C(=O)N(CCN(CC)CC)C2c2ccncc2)cc1` (centres undefined), for which the cell number change turned out to be 4.53%. The AC50 under setting [1] was 2.91 µM [falling, single point].
As to `O=C(O)CNC1=NCCC1`, the cell number change is -1.31%.
With `COC(=O)c1[nH]c2cc(C)ccc2c1NC(=O)CN1CCc2cc(OC)c(OC)cc2C1`, the AC50 by setting is: under setting [2], 2.91 µM [rising, partial curve]; under setting [1], 0.651 µM [rising, partial curve].
On to `C=CCn1c(SCc2cc(C(C)=O)ccc2OCC)nc2ccccc2c1=O`, for which the cell number change came to 8.71%. Further, the AC50 under setting [1] was 2.91 µM [falling, single point].
For the molecule `O=S(=O)(Nc1ccc2c(c1)nc1n2CCN(Cc2ccccc2)C1)c1ccc(Cl)cc1`, the cell number change is -30.3%. In addition, the AC50 under setting [2] was 7.31 µM [falling, partial curve, poor fit].
On to `O=S(=O)(c1ccc(F)cc1)N1CCN(c2ccc(-c3ccccc3)nn2)CC1`, for which the cell number change is 9.51%. In addition, the AC50 under setting [2] was 6.51 µM [rising, single point]. In addition, under setting [1], the concentration at half-maximal activity (AC50) is 6.51 µM [rising, single point].
As to `CC(=O)Nc1nc2ccc(C(=O)NC3CCCCC3)cc2s1`, the cell number change was -29.4%. Besides, the concentration at half-maximal activity (AC50) under setting [1] is 25.9 µM [falling, partial curve].
Take `CCN(CC)CCNC(=O)c1cc2c(-c3ccc(Cl)cc3)nn(C)c2s1`: the cell number change was determined as 13.2%. Moreover, the AC50 under setting [2] is 0.231 µM [rising, full curve, poor fit].
Take `Cc1cc2c(nc1C)CCCN2C[C@@H](C)O/N=C1/[C@H]2CCn3c(=O)n(-c4ccccc4)c(=O)n3[C@H]2[C@H](O)[C@@H]2O[C@H]12`: the cell number change is 14.6%. Also, the AC50 under setting [1] is 9.2 µM [rising, partial curve].
With `CCCCN(C(=O)CSc1nc2ccccc2n1CC)C1CCS(=O)(=O)C1` (centres undefined), the cell number change is -14.9%. Moreover, the AC50 under setting [1] was 0.103 µM [falling, full curve, poor fit].
Turning to `CCOCCCn1c(=S)[nH]c2cc3c(cc2c1=O)OCO3`, the AC50 by setting is: under setting [2], 2.59 µM [rising, partial curve]; under setting [1], 2.06 µM [rising, partial curve].
For `CCCC(=O)Nc1ccc2c(c1)nc(CCNC(=O)c1ccccc1)n2C`, the cell number change was determined as 4.88%. Under setting [1], the half-maximal activity concentration (AC50) was 4.61 µM [rising, full curve, poor fit].
With `COc1ccccc1NC(=O)OC(C)c1ccc(Cl)cc1` (centres undefined), the cell number change was determined as 13.7%. Besides, under setting [1], the AC50 was 20.6 µM [rising, single point].
For the molecule `CCOC(=O)c1sc(NC(=O)C2CC2)nc1C`, the cell number change is 0.647%. In addition, under setting [1], the concentration at half-maximal activity (AC50) is 3.66 µM [rising, single point].
`CCc1cc(CC)c(/C=N/NC(N)=O)c(CC)c1`: the cell number change is -26.1%. Besides, the concentration at half-maximal activity (AC50) under setting [1] is 29.1 µM [falling, single point].
With `O=C(N/N=C/C=C/c1ccc([N+](=O)[O-])cc1)c1cccs1`, the cell number change is -5.38%.
For `CN(C)CCn1c(=S)[nH]c2ccccc2c1=O`, the cell number change turned out to be 20.1%. The AC50 under setting [1] was 0.58 µM [falling, single point].
Regarding `CN(CC(=O)Nc1ccccc1Cl)C(=O)COC(=O)/C=C/c1ccccc1`, the cell number change was 21%.
As to `COc1cccc(C(=O)NCCNC(=O)c2ccccn2)c1`, the cell number change is -28.9%. Besides, the AC50 under setting [2] is 0.00411 µM [falling, full curve, poor fit]. Besides, the half-maximal activity concentration (AC50) under setting [1] was 5.62 µM [falling, single point].
With `COc1ccc(/C=N/NC(=O)c2cc[n+]([O-])cc2)cc1`, the cell number change came out at 16.9%. Under setting [1], the AC50 is 29.1 µM [falling, single point].
Consider `O=C(C1=NN(c2ccccc2)C2C(=O)N(c3ccccc3)C(=O)C12)c1ccccc1` (centres undefined), for which the cell number change was found to be 3.3%. Also, the AC50 under setting [1] was 0.651 µM [falling, single point].
For the molecule `COc1ccccc1/C=C/C(=O)NNC(=O)c1cc(C)oc1C`, the cell number change was -25%. Also, under setting [2], the AC50 is 0.146 µM [falling, full curve, poor fit].
As for `CCCOc1ccc(-c2c(C(=O)N/N=C/c3cccnc3)nnn2-c2nonc2N)cc1`, the cell number change worked out at 31.7%. In addition, the AC50 under setting [2] was 29.1 µM [rising, single point].
In the case of `C[C@@H](NC(=O)c1[nH]cnc1C(=O)Nc1nccs1)c1ccccc1`, the cell number change is 9.12%. The AC50 under setting [1] was 1.16 µM [rising, single point].
For `CCc1nc2c(cnn2-c2ccc(Cl)cc2)c(=O)n1-c1ccc2c(c1)OCCO2`, the cell number change amounted to 36.2%. Moreover, the AC50 under setting [1] is 6.51 µM [rising, partial curve].
For the molecule `Nc1c(C(=O)CSc2nccn2-c2ccc(Cl)cc2)c(=O)[nH]c(=O)n1C1CC1`, the cell number change is -10.8%. The AC50 under setting [1] was 0.146 µM [falling, full curve, poor fit].
For `O=C(c1cc2c(F)cccc2s1)N1CCCC1`, the AC50 under setting [1] is 29.1 µM [falling, single point].
For the molecule `C/C(=N\NC(=O)Cc1ccc(Br)cc1)c1cccnc1`, the cell number change was found to be 7.57%.
Regarding `C/C(=N/Nc1ccccc1C(=O)O)c1cccs1`, the cell number change stood at 4.56%. In addition, the concentration at half-maximal activity (AC50) under setting [2] is 0.164 µM [rising, full curve, poor fit].
For the molecule `O=S(=O)(NCCS(=O)(=O)N1CCN(c2ccccc2)CC1)c1ccc(F)cc1`, the cell number change was 102%. Also, the AC50 under setting [2] is 18.4 µM [rising, single point].
On to `COC(=O)CN(c1ccccc1[N+](=O)[O-])S(=O)(=O)c1ccccc1`, for which the cell number change was -52.9%. Further, under setting [2], the AC50 was 18.4 µM [falling, partial curve]. Moreover, under setting [1], the AC50 is 8.2 µM [falling, partial curve].
For `COc1ccc(CCN2C(=O)c3ccccc3NC2c2cc(Cl)c(O)c(OC)c2)cc1` (centres undefined), the cell number change is -7.14%.
As to `CCOc1ccc(N2C(=O)CC(N3CCN(c4ccccc4OC)CC3)C2=O)cc1` (centres undefined), the cell number change was determined as 25.3%. Further, the AC50 under setting [1] is 16.4 µM [falling, partial curve, poor fit].
With `Cc1c(N(C)CS(=O)(=O)O)c(=O)n(-c2ccccc2)n1C`, the cell number change is -37.6%. The AC50 under setting [2] was 23.1 µM [falling, single point]. For the same molecule, the AC50 under setting [1] is 25.9 µM [falling, single point].
In the case of `Cc1cccc(/C=C2\Oc3cc(OS(C)(=O)=O)ccc3C2=O)c1`, the cell number change worked out at 7.32%.
Regarding `CCC1CCCCN1CCCNC(=O)C1CCN(c2nnc(-n3cccc3)s2)CC1` (centres undefined), the cell number change was 3.3%. Under setting [1], the AC50 was 29.1 µM [rising, single point].
Turning to `Cc1ccccc1-c1nc(CS(=O)(=O)CC(=O)NCCCN2CCN(C)CC2)c(C)o1`, the cell number change was determined as 2.29%.
The same measure, in the same setting: for `Cc1ccc(N2C(=O)c3cccc4c(N5CCN(C)CC5)ccc(c34)C2=O)c2cccnc12` the value was 15.9%.
On to `O=C(NC1(Cc2ccccc2)CCN(CCCc2ccccc2)C1=O)c1ccccc1` (centres undefined), for which the cell number change is -10.5%. For the same molecule, the AC50 under setting [1] was 16.4 µM [falling, single point].
Consider `O=C(O)CC(=O)Nc1ccc(Oc2ccc(C(F)(F)F)cn2)c(Cl)c1`, for which the cell number change is -35.7%. Besides, under setting [1], the concentration at half-maximal activity (AC50) is 16.4 µM [falling, single point].
Turning to `COc1ccc(N2C(=O)CS/C2=C\[N+](=O)[O-])cc1`, the cell number change turned out to be 7.53%. Besides, the AC50 under setting [1] is 2.91 µM [rising, single point].
For the molecule `O=C(CCN1C(=O)c2ccccc2C1=O)Nc1ccc(F)cc1`, the cell number change was -10.2%. In addition, the AC50 under setting [2] was 0.231 µM [falling, full curve, poor fit]. Further, the AC50 under setting [1] is 0.651 µM [falling, full curve, poor fit].
As to `NC(=O)c1ccc(F)cc1`, the cell number change was -14.1%. Under setting [1], the AC50 is 0.184 µM [falling, full curve, poor fit].
Take `CC(C)OC(=O)CSc1nc(N)c(C#N)cc1C#N`: the cell number change is -4.31%. Under setting [2], the AC50 was 0.731 µM [falling, full curve]. Besides, the AC50 under setting [1] is 0.651 µM [falling, full curve].
For the molecule `COc1ccc2[nH]c(C(=O)Nc3ccc4c(c3)OCO4)cc2c1`, the cell number change was found to be 45.3%. Besides, the AC50 under setting [1] was 3.26 µM [rising, full curve].
Consider `O=C(COc1ccccc1)N1CCN(S(=O)(=O)c2ccc(Cl)cc2)CC1`, for which the AC50 under setting [2] is 2.91 µM [rising, single point].
For the molecule `CC(C)CC(=O)Nc1c2c(nn1-c1cccc(Cl)c1)CS(=O)C2` (centres undefined), the cell number change stood at 20.9%. Besides, under setting [1], the AC50 is 7.31 µM [rising, partial curve].
On to `O=C(Oc1ccc(Cl)c2cccnc12)c1cccnc1`, for which the cell number change turned out to be 22.3%. Further, under setting [1], the AC50 was 29.1 µM [rising, single point].
On to `CC12CN(C(=O)c3ccccc3)C3(C#N)CC1CCC23C` (centres undefined), for which the cell number change was -8.59%. Moreover, the AC50 under setting [1] was 0.731 µM [falling, full curve].
With `Cc1nc(NC(=O)/C=C/c2ccco2)sc1C`, the cell number change stood at 15.5%. Under setting [1], the AC50 is 5.8 µM [rising, partial curve].
Take `COc1ccc(C(=O)Nc2nnc(CCc3ccccc3)s2)c(OC)c1`: the cell number change is -12.4%. The AC50 under setting [1] is 29.1 µM [falling, single point].
For `CCOC(=O)c1c(/N=C/c2cccc([N+](=O)[O-])c2O)sc(C)c1C`, the cell number change was -16.3%. Also, under setting [1], the AC50 is 2.59 µM [rising, full curve].
On to `Cc1[nH]c(=O)[nH]c(=O)c1S(=O)(=O)Nc1cccc(C(F)(F)F)c1`, for which the cell number change was -8.51%. Under setting [2], the AC50 was 1.84 µM [rising, partial curve, poor fit]. For the same molecule, under setting [1], the AC50 was 0.326 µM [rising, full curve].
With `CCC(C)NCCOCCOc1ccc(F)cc1` (centres undefined), the cell number change was -108%. Further, the AC50 under setting [2] is 14.6 µM [falling, partial curve]. Besides, the AC50 under setting [1] was 29.1 µM [falling, partial curve].
On to `Cc1cccc(C)c1NC(=O)CNC(=O)c1c(C)nn(-c2ccccc2)c1Cl`, for which the cell number change was 61%. Moreover, under setting [2], the AC50 was 5.8 µM [rising, full curve, poor fit].
Take `CN(Cc1ccccc1)CC1CCCN(CCc2ccccc2F)C1` (centres undefined): the cell number change was -2.75%. Under setting [1], the AC50 is 32.6 µM [falling, single point].
`O=C1c2cccc3cccc(c23)C(=O)N1CC1CCCO1` (centres undefined): the cell number change is -21.3%.
As to `CC(=O)N(C(C)=O)S(=O)(=O)c1ccc(N=NN2CCCCC2)cc1`, the cell number change was -48.5%. Further, the AC50 under setting [2] was 29.1 µM [falling, single point]. Moreover, the AC50 under setting [1] is 0.146 µM [rising, full curve].
Consider `O=C(Nn1cnnc1)c1ccccc1Cl`, for which the cell number change was determined as 15%. For the same molecule, under setting [1], the half-maximal activity concentration (AC50) is 0.461 µM [rising, full curve, poor fit].
`CS(=O)(=O)c1ccc(SCC(=O)NC2CCS(=O)(=O)C2)c([N+](=O)[O-])c1` (centres undefined): the cell number change is -17.5%.
